The supplement of paper PMC7666118
The list shows a part of the results.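 How the source made its calls: active = dose-dependent thermal stabilisation significant by F-test of dose-response against flat model at 10% FDR; inactive = not significant.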

By UniProt entry, the sequences of proteins in these tests, tags left out. Where a name states a change or a piece, a line headed by the entry shows the natural chain unless it says otherwise.
UniProt Q96A49: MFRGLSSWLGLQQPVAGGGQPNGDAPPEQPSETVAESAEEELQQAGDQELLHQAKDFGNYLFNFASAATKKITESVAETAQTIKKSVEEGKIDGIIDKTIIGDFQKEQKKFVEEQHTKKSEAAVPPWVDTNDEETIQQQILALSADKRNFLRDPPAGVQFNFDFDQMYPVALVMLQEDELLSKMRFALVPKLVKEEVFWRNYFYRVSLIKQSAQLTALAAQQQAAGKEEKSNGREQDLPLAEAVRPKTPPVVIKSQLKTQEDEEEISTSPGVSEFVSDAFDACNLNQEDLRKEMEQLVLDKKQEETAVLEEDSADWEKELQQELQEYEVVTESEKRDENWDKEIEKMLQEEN
UniProt Q9NRS6: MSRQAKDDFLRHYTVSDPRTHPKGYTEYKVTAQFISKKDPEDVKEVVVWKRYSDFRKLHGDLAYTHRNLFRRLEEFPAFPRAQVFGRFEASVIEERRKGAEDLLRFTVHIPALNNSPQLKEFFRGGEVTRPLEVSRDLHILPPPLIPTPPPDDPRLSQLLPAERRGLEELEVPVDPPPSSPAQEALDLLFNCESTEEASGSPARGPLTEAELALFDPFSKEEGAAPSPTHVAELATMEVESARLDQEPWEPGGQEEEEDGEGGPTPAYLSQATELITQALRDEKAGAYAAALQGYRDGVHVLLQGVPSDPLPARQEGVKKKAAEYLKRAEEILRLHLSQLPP
UniProt P53597: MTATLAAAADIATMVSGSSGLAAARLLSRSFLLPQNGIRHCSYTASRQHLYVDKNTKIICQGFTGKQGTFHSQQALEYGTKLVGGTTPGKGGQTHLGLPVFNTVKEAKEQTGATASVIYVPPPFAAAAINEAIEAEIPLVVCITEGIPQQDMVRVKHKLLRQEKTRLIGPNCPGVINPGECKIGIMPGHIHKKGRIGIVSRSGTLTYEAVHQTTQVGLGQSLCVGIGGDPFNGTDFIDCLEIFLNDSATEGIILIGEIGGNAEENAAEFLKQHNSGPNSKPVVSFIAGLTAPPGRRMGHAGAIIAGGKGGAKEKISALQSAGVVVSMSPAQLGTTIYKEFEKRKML
UniProt P78362, whole entry, looked up: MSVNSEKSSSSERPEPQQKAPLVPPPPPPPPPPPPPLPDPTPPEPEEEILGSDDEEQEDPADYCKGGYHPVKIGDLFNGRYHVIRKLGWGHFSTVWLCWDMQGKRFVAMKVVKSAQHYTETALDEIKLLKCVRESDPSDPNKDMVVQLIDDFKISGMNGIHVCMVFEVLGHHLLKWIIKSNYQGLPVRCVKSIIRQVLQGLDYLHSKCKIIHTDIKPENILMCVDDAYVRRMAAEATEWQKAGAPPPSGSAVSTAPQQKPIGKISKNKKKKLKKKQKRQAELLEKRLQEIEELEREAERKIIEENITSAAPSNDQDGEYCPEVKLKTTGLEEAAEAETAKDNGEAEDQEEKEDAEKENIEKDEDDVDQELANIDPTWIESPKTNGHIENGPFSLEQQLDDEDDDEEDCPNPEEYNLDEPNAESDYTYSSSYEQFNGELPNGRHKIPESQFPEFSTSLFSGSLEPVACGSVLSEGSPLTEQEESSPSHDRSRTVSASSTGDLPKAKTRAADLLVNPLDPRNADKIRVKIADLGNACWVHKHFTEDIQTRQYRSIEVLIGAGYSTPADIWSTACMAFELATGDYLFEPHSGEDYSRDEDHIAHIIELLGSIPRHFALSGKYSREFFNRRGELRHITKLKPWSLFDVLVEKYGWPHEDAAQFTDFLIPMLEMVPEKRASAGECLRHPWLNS
UniProt Q15833: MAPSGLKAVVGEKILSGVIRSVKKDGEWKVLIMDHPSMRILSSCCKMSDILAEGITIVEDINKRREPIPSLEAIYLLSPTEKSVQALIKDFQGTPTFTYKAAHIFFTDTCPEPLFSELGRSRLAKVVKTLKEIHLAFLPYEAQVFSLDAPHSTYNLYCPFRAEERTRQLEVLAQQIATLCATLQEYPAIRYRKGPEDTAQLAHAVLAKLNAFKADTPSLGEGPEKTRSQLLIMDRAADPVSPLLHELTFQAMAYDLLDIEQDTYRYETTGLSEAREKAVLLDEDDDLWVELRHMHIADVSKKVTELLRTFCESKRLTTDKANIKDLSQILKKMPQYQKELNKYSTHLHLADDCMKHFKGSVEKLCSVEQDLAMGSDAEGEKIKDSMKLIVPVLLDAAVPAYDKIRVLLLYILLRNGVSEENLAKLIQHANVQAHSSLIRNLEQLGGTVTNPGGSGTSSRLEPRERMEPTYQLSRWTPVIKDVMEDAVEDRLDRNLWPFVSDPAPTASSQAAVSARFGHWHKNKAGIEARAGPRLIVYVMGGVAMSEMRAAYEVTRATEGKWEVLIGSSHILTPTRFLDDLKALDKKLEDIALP
UniProt P62308, whole entry: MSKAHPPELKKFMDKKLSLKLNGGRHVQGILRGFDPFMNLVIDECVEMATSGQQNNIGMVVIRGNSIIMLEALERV
UniProt P61956, whole entry: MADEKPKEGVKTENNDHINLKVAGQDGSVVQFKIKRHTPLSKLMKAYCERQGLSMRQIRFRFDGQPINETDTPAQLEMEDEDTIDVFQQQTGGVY
UniProt Q68D10: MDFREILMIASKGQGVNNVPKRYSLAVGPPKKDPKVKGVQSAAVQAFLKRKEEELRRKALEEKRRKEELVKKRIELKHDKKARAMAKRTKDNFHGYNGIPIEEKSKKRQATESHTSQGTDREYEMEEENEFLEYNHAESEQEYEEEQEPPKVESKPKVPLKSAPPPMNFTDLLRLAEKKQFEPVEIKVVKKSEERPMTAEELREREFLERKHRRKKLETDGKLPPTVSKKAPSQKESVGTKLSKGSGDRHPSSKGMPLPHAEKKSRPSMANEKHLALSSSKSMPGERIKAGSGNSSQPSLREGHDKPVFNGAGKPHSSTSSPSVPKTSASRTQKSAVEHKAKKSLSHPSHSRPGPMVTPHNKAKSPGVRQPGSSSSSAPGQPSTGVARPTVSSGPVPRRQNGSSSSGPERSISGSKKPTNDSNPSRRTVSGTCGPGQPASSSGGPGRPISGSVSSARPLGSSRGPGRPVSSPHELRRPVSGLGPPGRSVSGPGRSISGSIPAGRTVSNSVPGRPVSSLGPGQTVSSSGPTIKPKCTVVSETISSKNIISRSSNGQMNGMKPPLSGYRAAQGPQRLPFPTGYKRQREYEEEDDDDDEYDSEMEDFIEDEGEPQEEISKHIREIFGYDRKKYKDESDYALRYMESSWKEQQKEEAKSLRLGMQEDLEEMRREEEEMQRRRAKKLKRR
UniProt Q9NZ72: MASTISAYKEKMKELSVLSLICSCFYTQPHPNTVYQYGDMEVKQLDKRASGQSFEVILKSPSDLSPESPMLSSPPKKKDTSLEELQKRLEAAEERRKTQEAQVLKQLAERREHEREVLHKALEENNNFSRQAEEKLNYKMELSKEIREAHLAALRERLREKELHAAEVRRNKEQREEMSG
UniProt P08579, whole entry: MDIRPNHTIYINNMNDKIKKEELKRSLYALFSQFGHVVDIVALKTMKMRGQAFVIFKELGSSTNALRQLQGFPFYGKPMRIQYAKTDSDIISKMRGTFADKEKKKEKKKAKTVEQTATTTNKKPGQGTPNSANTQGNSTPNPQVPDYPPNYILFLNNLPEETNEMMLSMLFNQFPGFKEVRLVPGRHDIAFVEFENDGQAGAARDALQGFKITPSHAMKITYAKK
UniProt P63165, whole entry: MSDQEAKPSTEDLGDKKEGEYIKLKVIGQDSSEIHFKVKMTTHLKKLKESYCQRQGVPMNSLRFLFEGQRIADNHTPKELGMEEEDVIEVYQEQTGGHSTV
UniProt Q8NBT2: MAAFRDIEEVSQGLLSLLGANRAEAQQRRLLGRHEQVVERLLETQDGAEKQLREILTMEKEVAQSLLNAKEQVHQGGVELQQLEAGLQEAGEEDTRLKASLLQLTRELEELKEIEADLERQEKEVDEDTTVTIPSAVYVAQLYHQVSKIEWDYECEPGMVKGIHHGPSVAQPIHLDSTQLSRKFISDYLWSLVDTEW
UniProt Q9H930: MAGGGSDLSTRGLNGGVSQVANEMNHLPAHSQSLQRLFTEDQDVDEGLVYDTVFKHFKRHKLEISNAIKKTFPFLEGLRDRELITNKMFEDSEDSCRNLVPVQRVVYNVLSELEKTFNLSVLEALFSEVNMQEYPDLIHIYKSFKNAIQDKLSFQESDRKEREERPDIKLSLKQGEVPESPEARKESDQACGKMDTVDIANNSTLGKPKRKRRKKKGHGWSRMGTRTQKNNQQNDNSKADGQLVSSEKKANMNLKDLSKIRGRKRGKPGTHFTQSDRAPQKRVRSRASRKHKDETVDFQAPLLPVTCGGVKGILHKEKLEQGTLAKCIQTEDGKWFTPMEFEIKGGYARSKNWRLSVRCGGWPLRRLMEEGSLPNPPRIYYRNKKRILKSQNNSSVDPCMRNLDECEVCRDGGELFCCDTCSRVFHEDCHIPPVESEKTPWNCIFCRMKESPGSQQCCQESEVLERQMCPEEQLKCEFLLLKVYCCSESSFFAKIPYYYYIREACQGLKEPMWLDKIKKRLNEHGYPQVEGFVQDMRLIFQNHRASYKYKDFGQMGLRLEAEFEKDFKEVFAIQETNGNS
UniProt O75683: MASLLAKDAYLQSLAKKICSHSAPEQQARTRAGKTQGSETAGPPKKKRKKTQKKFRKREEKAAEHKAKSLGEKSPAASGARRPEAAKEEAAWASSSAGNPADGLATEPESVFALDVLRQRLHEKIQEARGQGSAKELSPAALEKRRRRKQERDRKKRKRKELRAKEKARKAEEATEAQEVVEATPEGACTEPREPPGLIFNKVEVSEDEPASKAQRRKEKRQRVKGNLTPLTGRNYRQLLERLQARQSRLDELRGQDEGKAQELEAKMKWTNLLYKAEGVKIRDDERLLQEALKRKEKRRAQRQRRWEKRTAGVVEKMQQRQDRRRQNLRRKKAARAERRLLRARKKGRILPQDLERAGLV
UniProt Q13188: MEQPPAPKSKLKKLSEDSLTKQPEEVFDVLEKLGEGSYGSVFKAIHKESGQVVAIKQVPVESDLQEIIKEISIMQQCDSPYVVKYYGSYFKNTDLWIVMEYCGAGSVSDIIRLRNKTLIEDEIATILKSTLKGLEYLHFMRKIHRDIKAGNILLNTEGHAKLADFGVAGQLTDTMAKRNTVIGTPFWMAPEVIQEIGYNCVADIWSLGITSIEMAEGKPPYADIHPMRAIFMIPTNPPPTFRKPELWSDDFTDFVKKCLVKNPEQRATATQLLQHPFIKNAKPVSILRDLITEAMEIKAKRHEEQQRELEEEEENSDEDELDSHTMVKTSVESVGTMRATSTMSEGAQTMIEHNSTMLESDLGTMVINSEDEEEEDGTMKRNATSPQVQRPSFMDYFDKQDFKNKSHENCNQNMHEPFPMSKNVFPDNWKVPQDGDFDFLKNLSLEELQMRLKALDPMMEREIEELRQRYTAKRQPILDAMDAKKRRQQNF
UniProt Q9BRV8: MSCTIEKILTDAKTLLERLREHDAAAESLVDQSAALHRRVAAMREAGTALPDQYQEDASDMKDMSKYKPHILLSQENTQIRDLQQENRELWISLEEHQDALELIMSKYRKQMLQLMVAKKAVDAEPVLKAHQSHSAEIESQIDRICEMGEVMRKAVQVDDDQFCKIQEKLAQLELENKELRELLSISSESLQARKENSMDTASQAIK
UniProt P42226: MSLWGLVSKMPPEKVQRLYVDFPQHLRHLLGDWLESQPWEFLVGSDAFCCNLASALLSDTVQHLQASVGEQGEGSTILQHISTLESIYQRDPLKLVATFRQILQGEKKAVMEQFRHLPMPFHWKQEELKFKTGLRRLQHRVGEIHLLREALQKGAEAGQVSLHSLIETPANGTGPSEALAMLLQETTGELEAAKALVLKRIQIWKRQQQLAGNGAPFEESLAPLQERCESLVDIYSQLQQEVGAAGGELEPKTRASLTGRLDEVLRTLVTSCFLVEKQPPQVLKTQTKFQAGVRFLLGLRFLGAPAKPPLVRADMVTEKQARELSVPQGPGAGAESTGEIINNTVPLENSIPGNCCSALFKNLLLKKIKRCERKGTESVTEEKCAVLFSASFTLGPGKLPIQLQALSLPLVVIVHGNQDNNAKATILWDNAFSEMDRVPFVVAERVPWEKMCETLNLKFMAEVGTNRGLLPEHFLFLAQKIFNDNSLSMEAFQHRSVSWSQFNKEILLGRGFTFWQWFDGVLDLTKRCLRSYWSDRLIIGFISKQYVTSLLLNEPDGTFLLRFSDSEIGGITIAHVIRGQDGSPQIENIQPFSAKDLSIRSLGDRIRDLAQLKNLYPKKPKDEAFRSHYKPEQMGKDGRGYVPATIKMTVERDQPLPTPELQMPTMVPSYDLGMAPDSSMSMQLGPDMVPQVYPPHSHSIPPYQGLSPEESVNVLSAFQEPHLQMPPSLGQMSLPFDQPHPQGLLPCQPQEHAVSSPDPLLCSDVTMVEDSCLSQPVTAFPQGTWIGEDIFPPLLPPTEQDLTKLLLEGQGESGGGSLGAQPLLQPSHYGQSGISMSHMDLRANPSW

Each target was assayed with Nc1nc2c(ncn2[C@@H]2O[C@H](COP(=O)(O)OP(=O)(O)OP(=O)(O)O)[C@@H](O)[C@H]2O)c(=O)[nH]1 (assay: dose-dependent thermal stabilisation call (2D-TPP, DLPTP, 10% FDR) (binary (1 = stabilised)); higher = stabilised by the compound). Settings: system: Jurkat gel-filtered lysate; concentration range 1-500 µM.

**Q.** For SYAP1 (UniProt Q96A49), which “dose-dependent thermal stabilisation call” value is on record?
**A.** inactive: 0

**Q.** SNX15 (UniProt Q9NRS6) was tested. Which “dose-dependent thermal stabilisation call” value did it give?
**A.** inactive: 0

**Q.** How did the “dose-dependent thermal stabilisation call” value turn out when SUCLG1 (UniProt P53597) was run?
**A.** active: 1

**Q.** How did the “dose-dependent thermal stabilisation call” value turn out when STAT3 (UniProt P40763) was run?
**A.** inactive: 0

**Q.** Which “dose-dependent thermal stabilisation call” value does the source give for SRPK2 (UniProt P78362) here?
**A.** inactive: 0

**Q.** With SRGAP3 (UniProt O43295) as the target, how does the “dose-dependent thermal stabilisation call” value read?
**A.** inactive: 0

**Q.** STXBP2 (UniProt Q15833) was tested. Which “dose-dependent thermal stabilisation call” value did it give?
**A.** active: 1

**Q.** For SMARCA4 (UniProt P51532), which “dose-dependent thermal stabilisation call” value is on record?
**A.** inactive: 0

**Q.** How did the “dose-dependent thermal stabilisation call” value turn out when SNRPG (UniProt P62308) was run?
**A.** inactive: 0

**Q.** How did the “dose-dependent thermal stabilisation call” value turn out when SPICE1 (UniProt Q8N0Z3) was run?
**A.** inactive: 0

**Q.** How did the “dose-dependent thermal stabilisation call” value turn out when SUMO2 (UniProt P61956) was run?
**A.** inactive: 0

**Q.** How did the “dose-dependent thermal stabilisation call” value turn out when SPTY2D1 (UniProt Q68D10) was run?
**A.** inactive: 0

**Q.** Which “dose-dependent thermal stabilisation call” value does the source give for TAF5 (UniProt Q15542) here?
**A.** active: 1

**Q.** For STMN3 (UniProt Q9NZ72), which “dose-dependent thermal stabilisation call” value is on record?
**A.** inactive: 0

**Q.** TACC3 (UniProt Q9Y6A5) was tested. Which “dose-dependent thermal stabilisation call” value did it give?
**A.** inactive: 0

**Q.** SNRPB2 (UniProt P08579) was tested. Which “dose-dependent thermal stabilisation call” value did it give?
**A.** inactive: 0

**Q.** SRRT (UniProt Q9BXP5) was tested. Which “dose-dependent thermal stabilisation call” value did it give?
**A.** inactive: 0

**Q.** Which “dose-dependent thermal stabilisation call” value does the source give for SUMO1 (UniProt P63165) here?
**A.** inactive: 0

**Q.** For SPC24 (UniProt Q8NBT2), which “dose-dependent thermal stabilisation call” value is on record?
**A.** inactive: 0

**Q.** For TAF6 (UniProt P49848), which “dose-dependent thermal stabilisation call” value is on record?
**A.** inactive: 0

**Q.** SP140L (UniProt Q9H930) was tested. Which “dose-dependent thermal stabilisation call” value did it give?
**A.** inactive: 0

**Q.** Which “dose-dependent thermal stabilisation call” value does the source give for SURF6 (UniProt O75683) here?
**A.** inactive: 0

**Q.** With STK3 (UniProt Q13188) as the target, how does the “dose-dependent thermal stabilisation call” value read?
**A.** inactive: 0

**Q.** STXBP1 (UniProt P61764) was tested. Which “dose-dependent thermal stabilisation call” value did it give?
**A.** inactive: 0

**Q.** Which “dose-dependent thermal stabilisation call” value does the source give for SIKE1 (UniProt Q9BRV8) here?
**A.** inactive: 0

**Q.** How did the “dose-dependent thermal stabilisation call” value turn out when STAT6 (UniProt P42226) was run?
**A.** active: 1

**Q.** Which “dose-dependent thermal stabilisation call” value does the source give for SUGP2 (UniProt Q8IX01) here?
**A.** inactive: 0
